# About 5,400 (1.8%) of roughly 300,000 compounds were called active. The shares of active, inactive and inconclusive entries below differ from those in the screen. The call rests on the fitted dose curve; tested in HEK293 cells. Where the call is inconclusive, the potency comes from a doubtful curve fit.
# Test: qHTS for inhibitors of binding or entry into cells for Marburg Virus
# Settings: Marburg virus pseudotyped entry inhibition, cell reporter; activity change, negative = inhibition: at 37.8 µM (top of the series) unless noted
# On the % scale 0 is the no-effect control and ±100 the full control effect; potency means the concentration at half of the fitted maximal effect.
Compound,Potency,"activity change, negative = inhibition"
C/C(CC(=O)Nc1ccc(Cl)c(C(F)(F)F)c1)=N\NC(=O)c1cc2ccccc2cc1O,"inconclusive: 25.1 µM [inhibitor, single point]",
O=C(O)CCCN1C(=O)/C(=C/C=C/c2ccco2)SC1=S,"inconclusive: 11.2 µM [inhibitor, partial curve, poor fit]",
COC(=O)c1sccc1NC(=O)CC1C(=O)NCCN1C(=O)c1ccc(C)c(C)c1 (configuration not stated),,inactive: 0% [at 14.2 µM]
O=C1c2ccccc2C(=O)N1OCc1ccccc1[N+](=O)[O-],,inactive: -10.5% [at 46.1 µM]
Cc1sc2nc(SCc3ccccc3)n(Cc3ccco3)c(=O)c2c1C,"inconclusive: 16.4 µM [inhibitor, single point]",
CCc1ccc(-n2c(SCC(=O)Nc3cccc(S(=O)(=O)NC4=NCCCCC4)c3)nc3ccccc3c2=O)cc1,"inconclusive: 11.2 µM [inhibitor, single point]",
O=S(=O)(Nc1cccnc1Cl)c1ccc(F)cc1,,inactive: -3.91% [at 46.1 µM]
Fc1ccc(-c2cc3nc(-c4ccccc4)cc(N4CCOCC4)n3n2)cc1,"inconclusive: 20.6 µM [inhibitor, single point]",
CCCC(=O)OCCNc1cc(SCCC(=O)OC)c2nonc2c1[N+](=O)[O-],"inconclusive: 0.631 µM [activator, full curve]",
Cn1nnnc1SCC(=O)NC1CCCc2ccccc21 (configuration not stated),,inactive: 2.31% [at 46.1 µM]
COc1ccccc1N1CCN(C(=O)c2c(-c3ccccc3)noc2C)CC1,"inconclusive: 6.31 µM [inhibitor, full curve, poor fit]",
CC1=C(C)CC(C(=O)Nc2ccc3c(c2)OCO3)C(C(=O)O)C1 (configuration not stated),,inactive: 29% [at 46.1 µM]
O=S(=O)(/C=C/c1ccccc1)N1CCN(c2nc(-c3cccnc3)nc3ccccc23)CC1,active: 11.2 µM,
CN1C(=O)c2ccccc2Sc2ccc(NC(=O)Nc3ccccc3F)cc21,"inconclusive: 10 µM [inhibitor, partial curve, poor fit]",
Cc1ccc(C(=O)NCC(=O)OCc2c(F)cccc2Cl)s1,,inactive: 2.9%
CC(C)C(=O)NC(c1ccco1)c1ccc2cccnc2c1O (configuration not stated),"inconclusive: 11.2 µM [inhibitor, partial curve, poor fit]",
CN(C(=O)c1ccccc1F)C(c1ccccc1)c1ccccc1,"inconclusive: 11.2 µM [inhibitor, single point]",
CCOC(=O)c1ccc(NC(=O)c2cccc(C)c2[N+](=O)[O-])cc1,"inconclusive: 3.16 µM [inhibitor, single point]",
Cc1c(C(=O)OCC(O)=C(C#N)c2nc3ccccc3[nH]2)oc2ccc(Br)cc12,"inconclusive: 35.5 µM [activator, single point]",
COc1ccc(-c2csc(NC(=S)NC(=O)c3cccs3)n2)cc1OC,"inconclusive: 11.2 µM [inhibitor, partial curve, poor fit]",
CCN(c1ccccc1)S(=O)(=O)c1ccc(NC(=O)c2ccco2)cc1,"inconclusive: 17.8 µM [inhibitor, single point]",
Cc1cccn2c(=O)c(/C=C(\C#N)c3nc4ccccc4n3C)c(Oc3ccc(Br)cc3)nc12,,inactive: 17.4% [at 46.1 µM]
CCN(CC)c1ccc(/C=N/NC(=S)NCc2ccccc2)c(O)c1,"inconclusive: 7.08 µM [inhibitor, partial curve, poor fit]",

# Molecules above that have a cyano group, in the order listed:
Compound,Potency,"activity change, negative = inhibition"
Cc1c(C(=O)OCC(O)=C(C#N)c2nc3ccccc3[nH]2)oc2ccc(Br)cc12,"inconclusive: 35.5 µM [activator, single point]",
Cc1cccn2c(=O)c(/C=C(\C#N)c3nc4ccccc4n3C)c(Oc3ccc(Br)cc3)nc12,,inactive: 17.4% [at 46.1 µM]

# Additional records:

Compound,Potency,"activity change, negative = inhibition"
CCN(CC)c1ccc(CNc2nc3ccccc3n2CCN2CCCCC2)cc1,"inconclusive: 7.08 µM [inhibitor, full curve, poor fit]",
COc1ccccc1C(=O)NCCC(=O)Nc1nc2ccccc2[nH]1,,inactive: 19.2% [at 46.1 µM]
CCCNC(=O)c1ccccc1NC(=O)c1ccccc1N(C)S(C)(=O)=O,,inactive: -8.97% [at 46.1 µM]
CCCCCCCc1cc2c(cn1)C(=O)C(C)(OC(C)=O)C(O)=C2Cl (configuration not stated),"inconclusive: 1.5 µM [inhibitor, partial curve, poor fit]",
Cn1c(-c2ccc([N+](=O)[O-])cc2)nc2ccccc21,"inconclusive: 3.16 µM [inhibitor, single point]",
CC(C)(C)C1CCC2(CC1)Nc1cccc3cccc(c13)N2,"inconclusive: 0.1 µM [activator, full curve, poor fit]",
O=[N+]([O-])c1ccc(N2CCN(c3ccccc3)CC2)nc1,"inconclusive: 6.31 µM [activator, single point]",
O=[N+]([O-])c1ccc(S(=O)(=O)N2CCN(c3ccnc4cc(Cl)ccc34)CC2)cc1,"inconclusive: 22.4 µM [inhibitor, partial curve, poor fit]",
Cc1ccc(CN(Cc2cccnc2)C(=S)Nc2cc(Cl)ccc2C)cc1,"inconclusive: 35.5 µM [inhibitor, single point]",
Clc1ccc2c(c1)C1OCCC1C(c1ccco1)N2 (configuration not stated),,inactive: -13.9%
O=C(CN1CCOCC1)Nc1ncc(Br)cc1Br,"inconclusive: 0.316 µM [activator, partial curve, poor fit]",
O=C(NCCc1ccccc1)c1ccc2c(=O)[nH]c3c(C(=O)NCC4CCCO4)sc(=S)n3c2c1 (configuration not stated),,inactive: -12.1% [at 46.1 µM]
Cc1cccc(C)c1Nc1c(-c2ccsc2)nc2ccccn12,"inconclusive: 7.08 µM [inhibitor, full curve, poor fit]",
CCOc1ccccc1NC(=O)c1c(C)cc(C)nc1SCC(=O)c1cccc(OC)c1,"inconclusive: 1.58 µM [inhibitor, partial curve, poor fit]",
CCCCCCCCn1c2c(c(=N)c3c1CCC3)CCCC2,active: 5.01 µM,
CC(C)C(=O)c1cc2c(cc1NC(=O)c1ccccc1)OCCO2,"inconclusive: 29.1 µM [inhibitor, single point]",
Cc1cc(Nc2cccc(C(F)(F)F)c2)nc2ccc(NC(=O)c3ccc(N(C)C)cc3)cc12,"inconclusive: 12.6 µM [activator, single point]",
COc1ccc2oc(C(=O)N3CCCc4ccccc43)c(C)c2c1,"inconclusive: 8.91 µM [activator, partial curve]",
CCOc1ccc(NC(=O)c2ccc(CC)s2)c([N+](=O)[O-])c1,"inconclusive: 4.47 µM [activator, single point]",
COc1ccc2c(c1)C(C)=CC(C)(C)N2C(=O)CN1C(=O)CCC1=O,inactive,
Cc1ccc(CN2C(=O)c3ccccc3C2C(=O)NC2CCCCCC2)cc1 (configuration not stated),,inactive: 0.0041% [at 46.1 µM]
CCOC(=O)C1=C(C)Nc2ncnn2C1c1cc(Br)ccc1F (configuration not stated),"inconclusive: 2.82 µM [inhibitor, partial curve, poor fit]",
O=C(Nc1ccc(Cl)c(Cl)c1)N1N=CCC1c1ccccc1 (configuration not stated),"inconclusive: 25.1 µM [inhibitor, single point]",

Compound,Potency,"activity change, negative = inhibition"
CCOc1ccc(/C=N/NC(=O)C2CCCC2)c(OCC)c1,,inactive: 1.62% [at 46.1 µM]
COc1ccc(NC(=O)c2ccco2)cc1N,"inconclusive: 1.16 µM [activator, single point]",
COC(=O)C(CC(=O)c1ccc(Cl)cc1)c1ccccc1 (configuration not stated),,inactive: 18.5%
O=C(C1CCN(S(=O)(=O)c2ccccc2)CC1)N1CCN(Cc2ccccc2)CC1,,inactive: 22.2%
CCOC(=O)C(C)Oc1ccc2c(CC)cc(=O)oc2c1C (configuration not stated),"inconclusive: 0.562 µM [activator, partial curve, poor fit]",
C[C@@H]1O[C@@H](Oc2c(-c3cc(O)c(O)c(O)c3)oc3cc(O)cc(O)c3c2=O)[C@H](O)[C@H](O)[C@H]1O,"inconclusive: 32.6 µM [inhibitor, single point]",
Cc1ccccc1/C=C1\SC(=S)N(/N=C/c2cc([N+](=O)[O-])ccc2O)C1=O,,inactive: 23.3% [at 46.1 µM]
Cc1ccc(C)c(C(=O)COC(=O)c2cc([N+](=O)[O-])ccc2N2CCOCC2)c1,,inactive: 0.592%
Cc1ccc(-c2nc(NC(=O)c3nn(C)cc3[N+](=O)[O-])sc2C)cc1C,"inconclusive: 7.08 µM [inhibitor, full curve, poor fit]",
C=CCn1c(SCc2nc3ccccc3[nH]2)nnc1-c1ccc(OC)cc1,,inactive: -26.4%
Cc1ccc(S(=O)(=O)Nc2ccccc2F)cc1C(=O)NNC(=O)c1csc(N2CCOCC2)n1,"inconclusive: 2.24 µM [inhibitor, single point]",
CCN(CC)S(=O)(=O)c1ccc(NC(=O)[C@H](CSCc2ccccc2)N2Cc3ccccc3C2=O)cc1,"inconclusive: 3.98 µM [inhibitor, partial curve, poor fit]",
COc1ccc(OC)c(S(=O)(=O)NCc2cccnc2)c1,"inconclusive: 35.5 µM [inhibitor, single point]",
Cc1ccc(N(CC(=O)N2CCCCC2)S(=O)(=O)c2ccc(C)cc2)cc1,,inactive: -22.7% [at 46.1 µM]
NS(=O)(=O)c1cccc(NC(=O)CCCC2CCCCC2)c1,"inconclusive: 2.51 µM [activator, partial curve, poor fit]",
Cc1ccc(NC(=O)CSc2nn(-c3ccc(Cl)cc3)c(=S)s2)cc1S(=O)(=O)N(C)C,"inconclusive: 11.2 µM [inhibitor, partial curve, poor fit]",
Cc1ccc(C)c(S(=O)(=O)NCC(=O)N2CCCC2)c1,,inactive: -28.3%
COc1cccc(CNC(=O)CN2C(=O)CC(c3ccccc3)=Nc3ccccc32)c1,"inconclusive: 1.78 µM [inhibitor, partial curve, poor fit]",
CC(NC(=O)COc1ccccc1-c1ccccc1)c1ccccc1 (configuration not stated),"inconclusive: 13 µM [inhibitor, partial curve, poor fit]",
COc1ccc2nc3sc(C(=O)Nc4ccccc4F)cc3cc2c1,,inactive: -2.15% [at 46.1 µM]
Cn1cc([N+](=O)[O-])c(C(=O)N(Cc2ccccc2)Cc2ccccc2)n1,"inconclusive: 20 µM [activator, partial curve, poor fit]",
